Reference: PMC9135762
These are yes or no findings as the source states them, for the method shown. In cells and extracts the contact can be indirect. These calls come from enrichment with a bait or labelling near it, and not all partners need be listed.

By UniProt entry, the sequences of proteins in these tests, tags left out.
UniProt P35558: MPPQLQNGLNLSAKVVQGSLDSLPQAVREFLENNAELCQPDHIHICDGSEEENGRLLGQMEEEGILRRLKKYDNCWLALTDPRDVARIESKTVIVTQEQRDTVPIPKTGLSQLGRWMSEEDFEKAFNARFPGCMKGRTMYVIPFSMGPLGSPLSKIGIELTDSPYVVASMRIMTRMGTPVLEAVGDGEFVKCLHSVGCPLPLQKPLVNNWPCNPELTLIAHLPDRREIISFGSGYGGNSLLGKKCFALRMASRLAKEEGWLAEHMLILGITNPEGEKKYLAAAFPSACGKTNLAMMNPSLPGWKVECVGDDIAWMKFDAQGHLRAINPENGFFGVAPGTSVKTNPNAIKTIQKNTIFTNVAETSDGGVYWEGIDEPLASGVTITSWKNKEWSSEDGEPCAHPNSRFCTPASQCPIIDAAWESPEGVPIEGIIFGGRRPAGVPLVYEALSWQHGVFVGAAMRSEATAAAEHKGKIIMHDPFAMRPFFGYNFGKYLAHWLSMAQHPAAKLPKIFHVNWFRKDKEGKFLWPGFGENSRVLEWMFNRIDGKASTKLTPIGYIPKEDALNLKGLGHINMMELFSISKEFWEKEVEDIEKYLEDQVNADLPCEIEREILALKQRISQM

Biological target: T1, pyruvate carboxylase (human (endogenous in hADSC)) (UniProt P11498)
T1 sequence: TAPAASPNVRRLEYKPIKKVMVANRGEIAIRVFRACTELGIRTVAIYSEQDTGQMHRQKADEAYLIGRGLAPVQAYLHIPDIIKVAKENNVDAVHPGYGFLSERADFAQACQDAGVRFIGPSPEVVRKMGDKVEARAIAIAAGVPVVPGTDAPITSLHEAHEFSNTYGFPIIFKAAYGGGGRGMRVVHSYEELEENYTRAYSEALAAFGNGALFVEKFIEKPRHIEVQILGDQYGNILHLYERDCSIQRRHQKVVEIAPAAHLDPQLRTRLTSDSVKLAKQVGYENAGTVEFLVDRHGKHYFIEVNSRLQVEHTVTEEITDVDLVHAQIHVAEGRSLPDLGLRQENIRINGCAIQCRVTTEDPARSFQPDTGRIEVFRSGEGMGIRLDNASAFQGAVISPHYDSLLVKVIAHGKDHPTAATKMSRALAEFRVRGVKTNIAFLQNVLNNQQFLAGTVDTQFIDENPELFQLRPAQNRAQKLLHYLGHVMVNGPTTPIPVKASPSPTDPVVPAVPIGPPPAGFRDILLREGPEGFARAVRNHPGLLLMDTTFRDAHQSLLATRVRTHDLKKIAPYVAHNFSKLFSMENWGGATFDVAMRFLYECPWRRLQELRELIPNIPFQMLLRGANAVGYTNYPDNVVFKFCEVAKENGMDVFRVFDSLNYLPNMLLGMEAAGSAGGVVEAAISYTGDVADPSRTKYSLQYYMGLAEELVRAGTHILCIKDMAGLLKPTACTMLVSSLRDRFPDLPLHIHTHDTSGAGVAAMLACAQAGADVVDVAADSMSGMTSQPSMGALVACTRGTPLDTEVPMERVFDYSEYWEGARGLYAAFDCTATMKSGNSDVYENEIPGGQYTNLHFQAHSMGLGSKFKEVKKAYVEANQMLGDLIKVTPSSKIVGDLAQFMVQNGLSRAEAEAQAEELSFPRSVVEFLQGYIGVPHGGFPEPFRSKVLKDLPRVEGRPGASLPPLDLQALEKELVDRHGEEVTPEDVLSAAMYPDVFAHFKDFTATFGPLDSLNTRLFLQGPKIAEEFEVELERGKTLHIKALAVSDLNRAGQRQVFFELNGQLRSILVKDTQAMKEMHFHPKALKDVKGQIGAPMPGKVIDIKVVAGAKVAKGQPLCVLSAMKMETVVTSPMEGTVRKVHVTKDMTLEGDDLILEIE
Assay: affinity purification with mass spectrometry; PC immunoprecipitated with 3 ug PC antibody (ProteinTech) or rabbit IgG, Protein A/G beads, from the mitochondria/membrane fraction of differentiated hADSC in RIP lysis buffer without DTT; cells transfected with GapmeR NC or GapmeR 1 (ADIPINT knockdown); partners identified by mass spectrometry

“PCK1 (from UniProt P35558 1-622) (enzyme)” was tested. Which binding did it give?
Its binding is “binds”.
